Assay results taken from paper PMC5477585.
No constants are given. Whether binding was seen depends on the method and setting. In cells and extracts the contact can be indirect. Some binding calls cover weakened binding; strength is not graded here.

Chains of the proteins cited; added tags and fusions are not shown.
UniProt Q9BUR4: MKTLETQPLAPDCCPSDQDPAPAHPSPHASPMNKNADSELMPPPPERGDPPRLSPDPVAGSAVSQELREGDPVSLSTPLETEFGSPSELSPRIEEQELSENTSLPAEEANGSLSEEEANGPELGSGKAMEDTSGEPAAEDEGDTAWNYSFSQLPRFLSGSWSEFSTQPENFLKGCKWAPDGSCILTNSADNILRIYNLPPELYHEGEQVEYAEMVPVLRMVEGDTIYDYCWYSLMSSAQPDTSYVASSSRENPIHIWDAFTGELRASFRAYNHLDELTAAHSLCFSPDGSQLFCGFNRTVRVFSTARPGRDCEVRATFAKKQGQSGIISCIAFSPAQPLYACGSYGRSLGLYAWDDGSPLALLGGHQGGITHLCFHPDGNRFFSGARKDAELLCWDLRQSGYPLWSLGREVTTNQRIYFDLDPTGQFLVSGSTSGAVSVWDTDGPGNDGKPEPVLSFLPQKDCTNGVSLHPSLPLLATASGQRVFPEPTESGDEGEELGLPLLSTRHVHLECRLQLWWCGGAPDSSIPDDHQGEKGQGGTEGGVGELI

Columns and labels:
[1] = molecular target: WDR79 (WD repeat protein 79), endogenous (human (endogenous in H1299)) (UniProt Q9BUR4); test: co-IP; endogenous proteins in H1299 lysate; precipitated with anti-WDR79 or with anti-USP7 antibody, isotype-matched IgG as control; Universal Magnetic Co-IP Kit, 1 mg crude extract, 3 μg antibody overnight at 4 °C
[2] = molecular target: Flag-tagged WDR79 (WD repeat protein 79) (human) (UniProt Q9BUR4); test: co-IP; A549 cells transfected with Flag-WDR79; lysate precipitated with anti-Flag antibody, blotted for USP7; Universal Magnetic Co-IP Kit, 1 mg crude extract, 3 μg antibody overnight at 4 °C, protein G magnetic beads
[3] = molecular target: USP7 (ubiquitin-specific protease 7), endogenous (human (endogenous in A549 and H1299)) (UniProt Q93009); test: co-IP; endogenous proteins in H1299 lysate; precipitated with anti-WDR79 or with anti-USP7 antibody, isotype-matched IgG as control; Universal Magnetic Co-IP Kit, 1 mg crude extract, 3 μg antibody overnight at 4 °C

| binding [1] | binding [2] | binding [3] | Substance |
| --- | --- | --- | --- |
| binds | binds | – | USP7 (ubiquitin-specific protease 7), endogenous (from UniProt Q93009 1-1102) (enzyme) |
| – | – | binds | WDR79 (WD repeat protein 79), endogenous (from UniProt Q9BUR4 1-548) |
